Data as given in PubChem BioAssay AID1259254 (NCATS, 2017).
The deposit covers about 59,000 reagents; shown is an unselected part. Of all reagents, about 1,550 (2.6%) are marked active. 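G2 share is only a proxy for re-replication; each gene was hit by three separate siRNAs, and active genes were retested.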 Unmarked entries are inactive. Reagents against one gene are numbered here. Not all columns of the deposit are shown. No sequences are given here. Not stated in the record: the amount of reagent.

- Purpose: 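Gene knock-downs that lead to re-replication, shown by excess G2 DNA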 (primary screen)
- System: human HCT116 colorectal cancer cells
- Reagents: single siRNA against human genes
- Time to read-out: 3 days
- Measured: 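Nuclei stained with Hoechst and imaged; cell-cycle phase assigned by DNA content; G2 share scaled per plate, non-targeting siRNA 0%, GMNN siRNA 100%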
- Direction: G2 robust z-score: higher = more G2 cells, more excess DNA replication
- Active means: 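Active siRNAs have a G2 robust z of 5 or more median absolute deviations over the median, which in these data means about 38% or higher of GMNN control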

DLGAP4 #1
- G2 robust z-score: -0.308

DLGAP4 #2
- G2 robust z-score: 1.02

DLGAP4 #3
- G2 robust z-score: 3.86

ARL14 #1
- G2 robust z-score: -0.192

ARL14 #2
- G2 robust z-score: 2.79

ARL14 #3
- G2 robust z-score: 3.62

MAP1LC3B2 #1
- G2 robust z-score: 0.718

MAP1LC3B2 #2
- G2 robust z-score: -0.479

MAP1LC3B2 #3
- G2 robust z-score: -0.278

DYNLT2B #1
- G2 robust z-score: 0.354

DYNLT2B #2
- G2 robust z-score: 1.33

DYNLT2B #3
- G2 robust z-score: 0.138

CHMP4B #1
- G2 robust z-score: 0.998

CHMP4B #2
- G2 robust z-score: 6.42 (active)

CHMP4B #3
- G2 robust z-score: 2.56

RAB25 #1
- G2 robust z-score: -0.574

RAB25 #2
- G2 robust z-score: -0.447

RAB25 #3
- G2 robust z-score: 0.364

Part of the list above, set out differently.
{"gene symbol": "MAP1LC3B2", "siRNA no.": 1, "G2 robust z-score": 0.718}
{"gene symbol": "MAP1LC3B2", "siRNA no.": 2, "G2 robust z-score": -0.479}
